Experimental data reported in paper PMC5008309.

Target: ERBB3-cytosolic region (CR)
Assay: co-IP; HEK293T cells co-transfected with pHA-APIP (or APIP deletion mutant) and pERBB3-3xFLAG (or ERBB3 deletion mutant) for 24 h; whole-cell lysates immunoprecipitated; western blotting

binding: binds
B1: HA-tagged APIP (pHA-APIP) expressed in HEK293T cells (protein, UniProt Q96GX9-1 1-242)
chain: MSGCDAREGDCCSRRCGAQDKEHPRYLIPELCKQFYHLGWVTGTGGGISLKHGDEIYIAPSGVQKERIQPEDMFVCDINEKDISGPSPSKKLKKSQCTPLFMNAYTMRGAGAVIHTHSKAAVMATLLFPGREFKITHQEMIKGIKKCTSGGYYRYDDMLVVPIIENTPEEKDLKDRMAHAMNEYPDSCAVLVRRHGVYVWGETWEKAKTMCECYDYLFDIAVSMKKVGLDPSQLPVGENGIV

Results are given in words; binding and its absence hold for the method and conditions named. Binding seen in cells or lysates may run through a third protein. Binding can be weak; no strength is given. Sequences can lack the tags named with a protein.
